Results: publication doi:10.1101/2025.05.20.655051

How the values were obtained:
Experiment in all cases: affinity purification with mass spectrometry
[1] = biological target: T1, VIPP1-GFP (Vesicle Inducing Protein in Plastids 1 tagged by GFP at its C-terminus) (Arabidopsis thaliana) (UniProt O80796)
T1 sequence: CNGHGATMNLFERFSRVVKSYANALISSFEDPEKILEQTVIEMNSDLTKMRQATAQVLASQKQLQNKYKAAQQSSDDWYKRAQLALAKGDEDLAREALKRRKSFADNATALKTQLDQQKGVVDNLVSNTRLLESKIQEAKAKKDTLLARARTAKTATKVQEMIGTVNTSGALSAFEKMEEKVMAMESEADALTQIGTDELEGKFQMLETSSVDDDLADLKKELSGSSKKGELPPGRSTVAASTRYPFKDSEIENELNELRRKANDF

[2] = biological target: VIPP1-His (VIPP1 C-terminally tagged by 6xHis) (Arabidopsis thaliana) (UniProt O80796)
[3] = biological target: VIPP1ΔC-GFP (VIPP1 lacking Vc, tagged by GFP at its C-terminus) (Arabidopsis thaliana)

Row | Binder | binding [1] | binding [2] | binding [3]
1 | cpHsc70-1 (chloroplast HSP70 isoform 1) (protein, UniProt Q9STW6 93-718) AAMEGGKPTIVTNAEGQRTTPSVVAYTKSGDRLVGQIAKRQAVVNPENTFFSVKRFIGRKMNEVDEESKQVSYRVVRDENNNVKLECPAINKQFAAEEISAQVLRKLVDDASRFLNDKVTKAVITVPAYFNDSQRTATKDAGRIAGLEVLRIINEPTAASLAYGFDRKANETILVFDLGGGTFDVSVLEVGDGVFEVLSTSGDTHLGGDDFDKRVVDWLAAEFKKDEGIDLLKDKQALQRLTEAAEKAKIELSSLTQTNMSLPFITATADGPKHIETTLTRAKFEELCSDLLDRVRTPVENSLRDAKLSFKDIDEVILVGGSTRIPAVQELVRKVTGKEPNVTVNPDEVVALGAAVQAGVLAGDVSDIVLLDVTPLSIGLETLGGVMTKIIPRNTTLPTSKSEVFSTAADGQTSVEINVLQGEREFVRDNKSLGSFRLDGIPPAPRGVPQIEVKFDIDANGILSVSAVDKGTGKKQDITITGASTLPKDEVDQMVQEAERFAKDDKEKRDAIDTKNQADSVVYQTEKQLKELGEKIPGEVKEKVEAKLQELKDKIGSGSTQEIKDAMAALNQEVMQIGQSLYNQPGAGGPGAGPSPGGEGASSGDSSSSKGGDGDDVIDADFTDSQ | binds | binds | –
2 | lipoxygenase 2 (LOX2) (enzyme, UniProt P38418 57-896) ANIEQEGNTVKEPIQNIKVKGYITAQEEFLEGITWSRGLDDIADIRGRSLLVELISAKTDQRITVEDYAQRVWAEAPDEKYECEFEMPEDFGPVGAIKIQNQYHRQLFLKGVELKLPGGSITFTCESWVAPKSVDPTKRIFFSDKSYLPSQTPEPLKKYRKEELETLQGKNREEVGEFTKFERIYDYDVYNDVGDPDNDPELARPVIGGLTHPYPRRCKTGRKPCETDPSSEQRYGGEFYVPRDEEFSTAKGTSFTGKAVLAALPSIFPQIESVLLSPQEPFPHFKAIQNLFEEGIQLPKDAGLLPLLPRIIKALGEAQDDILQFDAPVLINRDRFSWLRDDEFARQTLAGLNPYSIQLVEEWPLISKLDPAVYGDPTSLITWEIVEREVKGNMTVDEALKNKRLFVLDYHDLLLPYVNKVRELNNTTLYASRTLFFLSDDSTLRPVAIELTCPPNINKPQWKQVFTPGYDATSCWLWNLAKTHAISHDAGYHQLISHWLRTHACTEPYIIAANRQLSAMHPIYRLLHPHFRYTMEINARARQSLVNGGGIIETCFWPGKYALELSSAVYGKLWRFDQEGLPADLIKRGLAEEDKTAEHGVRLTIPDYPFANDGLILWDAIKEWVTDYVKHYYPDEELITSDEELQGWWSEVRNIGHGDKKDEPWWPVLKTQDDLIGVVTTIAWVTSGHHAAVNFGQYGYGGYFPNRPTTTRIRMPTEDPTDEALKEFYESPEKVLLKTYPSQKQATLVMVTLDLLSTHSPDEEYIGEQQEASWANEPVINAAFERFKGKLQYLEGVIDERNVNITLKNRAGAGVVKYELLKPTSEHGVTGMGVPYSISI | binds | – | binds
3 | MFP1 (protein, UniProt Q9LW85 96-726) DERGNEIKTSKVDLETEVAVVSEGTSPNPFLALLNGLGIFSAGVLGALYALARQDTKAAEETIESLKNQLKDRERALVLKEKDFEAKLQHEQEERKKEVEKAKEEQLSLINQLNSAKDLVTELGRELSSEKKLCEKLKDQIESLENSLSKAGEDKEALETKLREKLDLVEGLQDRINLLSLELKDSEEKAQRFNASLAKKEAELKELNSIYTQTSRDLAEAKLEIKQQKEELIRTQSELDSKNSAIEELNTRITTLVAEKESYIQKLDSISKDYSALKLTSETQAAADAELISRKEQEIQQLNENLDRALDDVNKSKDKVADLTEKYEDSKRMLDIELTTVKNLRHELEGTKKTLQASRDRVSDLETMLDESRALCSKLESELAIVHEEWKEAKERYERNLDAEKQKNEISASELALEKDLRRRVKDELEGVTHELKESSVKNQSLQKELVEIYKKVETSNKELEEEKKTVLSLNKEVKGMEKQILMEREARKSLETDLEEAVKSLDEMNKNTSILSRELEKVNTHASNLEDEKEVLQRSLGEAKNASKEAKENVEDAHILVMSLGKEREVLEKKVKKLEEDLGSAKGEILRMRSQPDSVKAVNSTDNKEKSDNTVTVKKVVRRRKSSTSS | binds | binds | no binding
4 | VPL3/VIA1 (At5g03900) (protein, UniProt Q8GW20 64-523) ASLDKVSGAIKPGGLVESDKLPTDVRKRAMDAVDECGRRVTVGDVASRGGLKVTEAQTALQAIAADTDGFLEVSDEGDVLYVFPRDYRTKLAAKSLRIQIEPFLEKAKGAVDYLARVSFGTALIASIVIVYTSIIALLSSKSEDDNRQRRRGRSYDSGFNFYINPVDLLWYWDPNYYNRRRAREDEGKGMNFIESVFSFVFGDGDPNQGIEEERWQMIGQYITSRGGVVAADELAPYLDVPSSKSAMNDESYILPVLLRFDGQPELDEEGNILYCFPSLQRTASGSSRRKEYVGKWFDWVADMEKFFKEKKWQFSKTSTSERALVIGLGAVNLFGVIVLNTLLNEMSVRPGGFLTFVKNIYPLLQIYAGSFFTIPLIRWFSIKRKNNQIENRNKARLQFARALESPDIALRRKLLSARDMAQKTVIGKDRIVYSTDRDMMEQNYETDEWDRRFKELEKSD | binds | – | binds

No constants are given. Whether binding was seen depends on the method and setting. Binding seen in cells or lysates may run through a third protein. A yes stands for co-enrichment or nearness to the bait. Other partners may have been found. For part of these data: A no says only that the protein was not detected with the bait. For part of these data: Tags and fused reporters may be left off the sequences shown.
